In PubChem BioAssay AID504648 (National Center for Advancing Translational Sciences (NCATS), 2011):
The whole screen tested about 390,000 compounds, of which about 610 (0.16%) were called active. Inconclusive means that the source gave no clear call. Such entries were picked first, then a sample of the others. The call rests on the fitted dose curve; in most records, active means well fitted inhibition curve with a large enough effect; inconclusive means small, poorly fitted or top-dose-only effect, or effect the other way, or another doubt; inactive means no such curve, though single readings can be large or run the other way. Where the call is inconclusive, the potency comes from a doubtful curve fit.

Experiment: Nrf2 qHTS screen for inhibitors: counterscreen for cytotoxicity
Conditions: A549 ARE-Fluc cells, CellTiter-Fluor viability, 18-24 h; series mostly up to 46 µM
Procedure, shortened: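 A549 ARE_Fluc cells in 5% FBS OPTI-MEM were exposed to compounds in concentration-response for 18-24 h at 37 deg C. Viability was read by CellTiter-Fluor fluorescence (Ex 405/Em 525) after 30 min, before the luciferase read.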
Potency means the concentration at half of the fitted maximal effect.

| Compound | Potency |
| --- | --- |
| CCc1ccc(-c2cc(C)no2)cc1S(=O)(=O)N1CCN(c2ccccn2)CC1 | inactive |
| COc1ccc(NC(=O)Cc2cccc3ccccc23)cc1 | inconclusive: 6.51 µM [activator, single point] |
| OC1CCN(c2c3c(nc4cc(-c5cccc(F)c5)nn24)CCCC3)CC1 | inconclusive: 23.1 µM [falling, partial curve, poor fit] |
| COc1ccc(N2CCN(C(=O)CSc3nc4[nH]ncc4c(=O)n3-c3cccc4ccccc34)CC2)cc1 | inconclusive: 29.1 µM [falling, single point] |
| O=C(c1ccc(Oc2ccc(C(F)(F)F)cn2)cc1)N1CCN(c2ccccc2)CC1 | inactive |
| CCCCNc1c(-c2ccc(OC)c(SC(C)CC)c2)nc2cc(C)ccn12 (configuration not stated) | inconclusive: 20.6 µM [falling, single point] |
| Cc1cccn2c(=O)c(C=C(C#N)C#N)c(N3CCN(c4cccc(Cl)c4)CC3)nc12 | inconclusive: 25.9 µM [falling, single point] |
| COc1ccccc1/C=C/c1nc(C#N)c(NC2CCCCC2)o1 | inactive |
| CCOC(=O)c1cc2n(c1/N=C/N(C)C)-c1ccccc1C2=O | inconclusive: 6.51 µM [activator, single point] |
| NC(=O)C1=C(N=C2CCCCC2)CCCC1 | inactive |
| Oc1ccc(C(c2nnnn2CCc2ccccc2)N2CCN(c3nc4ccccc4s3)CC2)cc1 (configuration not stated) | inconclusive: 29.1 µM [falling, partial curve, poor fit] |
| C[C@@H]1CN([C@@H](C)CO)C(=O)c2cccc(NC(=O)Nc3ccc(F)cc3)c2O[C@@H]1CN(C)Cc1ccc(Oc2ccccc2)cc1 | inactive |
| Cc1ccc(CCNC(=O)Cn2c(-c3cccs3)cc3ccccc32)cc1 | inactive |
| CCN(CC)c1ccc(/C=C(/C#N)C(=O)NCc2ccccc2)o1 | inactive |
| CCCCN(C(=O)c1ccc([N+](=O)[O-])s1)c1c(N)n(CCCC)c(=O)[nH]c1=O | inconclusive: 29.1 µM [falling, partial curve, poor fit] |
| Nc1nc(-c2ccccc2)c(N=Nc2ccccc2Cl)s1 | inconclusive: 20.6 µM [falling, partial curve] |
| N#C/C(=N\Nc1ccc([N+](=O)[O-])cc1)C(=N)N1CCOCC1 | inconclusive: 16.4 µM [falling, partial curve] |
| O=C(NNc1c2ccccc2nc2ccccc12)c1ccccc1O | inconclusive: 29.1 µM [falling, single point] |
| CCCOc1ccc(C(=O)Nc2ccc(NC(=O)c3cccs3)cc2)cc1 | inactive |
| Cc1ccc(C)c(-n2[nH]c3c4c(ccc3c2=O)C(=O)c2ccccc2C4=O)c1 | inconclusive: 16.4 µM [falling, single point] |
| Nc1nc(CCl)nc(Nc2cccc3ccccc23)n1 | inactive |
| COCCCNC(=O)c1cccn2c(=O)c3cc4ccccc4cc3nc12 | inconclusive: 18.4 µM [falling, single point] |
| O=C(Nc1cccc(S(=O)(=O)N2CCCC2)c1)c1ccco1 | inactive |

| Compound | Potency |
| --- | --- |
| CCn1c(CNC(=O)c2ccc(OC)cc2)nnc1SCC(=O)Nc1cc(C)ccc1C | inconclusive: 20.6 µM [falling, partial curve, poor fit] |
| Cn1c(/C(C#N)=C/c2ccccc2Br)nc2ccccc21 | inconclusive: 29.1 µM [falling, single point] |
| O=C(NCC(c1cccs1)N1CCOCC1)c1ccc(Br)o1 (configuration not stated) | inconclusive: 20.6 µM [falling, single point] |
| COc1ccc(S(=O)(=O)N2Cc3ccccc3CC2C(=O)Nc2cc(Cl)ccc2Cl)cc1 (configuration not stated) | inactive |
| Cc1cc(/C=C(/C#N)c2nc3ccccc3[nH]2)c(C)n1-c1cccc([N+](=O)[O-])c1 | inconclusive: 20.6 µM [falling, single point] |
| NC(=O)C1(Nc2ccc([N+](=O)[O-])cc2)CCCC1 | inconclusive: 18.4 µM [falling, partial curve, poor fit] |
| O=c1[nH]c2ccc(Cl)cc2c(-c2ccccc2)c1SC(=S)N1CCOCC1 | inactive |
| COc1ccc(-n2c(=O)cc(N3CCN(c4ccccc4)CC3)[nH]c2=O)cc1 | inconclusive: 14.6 µM [activator, partial curve, poor fit] |
| COCCN(C(=O)CSc1nnc(-c2ccc(Cl)cc2)o1)c1c(N)n(CC(C)C)c(=O)[nH]c1=O | inactive |
| CCOC(=O)/C=c1\s/c(=C(\C#N)C(=O)NC)n(-c2ccccc2)c1=O | inactive |
| CCCCCn1c(CCCNC(=O)c2ccc(Cl)cc2)nc2ccccc21 | inconclusive: 16.4 µM [falling, partial curve, poor fit] |
| CCOc1ccc(C(=O)O/N=C(\N)c2ccccn2)cc1OCC | inconclusive: 29.1 µM [falling, single point] |
| C=C(CN(C)C)C(=O)c1ccc(OC2OC(COC(C)=O)C(OC(C)=O)C(OC(C)=O)C2OC(C)=O)cc1 (configuration not stated) | inconclusive: 18.4 µM [falling, single point] |
| O=C(Cn1cc(/C=N/NC(=O)c2cccc(C(F)(F)F)c2)c2ccccc21)Nc1ccc(F)cc1 | inconclusive: 14.6 µM [falling, single point] |
| CCCCNC(=S)N(C)/N=C/c1ccccc1F | inconclusive: 20.6 µM [activator, partial curve, poor fit] |
| CC1(C)c2[nH]c3ccccc3c2C[C@H]2C(=O)N(Cc3ccccc3F)C(=O)N21 | inconclusive: 18.4 µM [falling, single point] |
| COc1cccc(/C=N/Nc2snc(SC)c2C#N)c1O | inactive |
| CC(C)(C)c1ccc(/C=C(\c2nc3ccccc3[nH]2)S(=O)(=O)c2ccccc2)cc1 | inconclusive: 20.6 µM [falling, single point] |
| Cc1ccc(Cn2c(SCc3ccc(C(=O)N4CCCCC4)cc3)nc3ccncc32)cc1 | inactive |
| Cc1cc(C)n2nc(S(=O)(=O)NCCc3ccccc3)nc2n1 | inconclusive: 29.1 µM [activator, single point] |
| CN(C(=O)CSc1nc(-c2ccccc2)no1)c1ccc(F)cc1 | inactive |
| COc1cccc(-c2sc3cc(OC)c(OC)cc3c2-c2ccc(OCCN3CCCCC3)cc2)c1 | inconclusive: 29.1 µM [falling, single point] |
| CCN(CC)c1nc(N)c2c(N)nc(OC)cc2c1C#N | inactive |

| Compound | Potency |
| --- | --- |
| Cc1ccc(-c2nnc(Nc3cccc(Cl)c3)c3ccccc23)cc1S(=O)(=O)N1CCN(C)CC1 | inconclusive: 23.1 µM [falling, single point] |
| COc1cccc(Nc2nc(-c3ccccc3)nc3ccccc23)c1 | inconclusive: 6.51 µM [activator, full curve, poor fit] |
| S=C(NCC1COc2ccccc2O1)Nc1ccc(Br)cc1 (configuration not stated) | inconclusive: 32.6 µM [activator, partial curve, poor fit] |
| CN1/C(=C/C(=O)c2nc(S(C)(=O)=O)ncc2Cl)C(C)(C)c2ccccc21 | inconclusive: 18.4 µM [falling, partial curve] |
| COc1ccc(C2c3ccc4ccccc4c3Oc3ncn(CCN4CCOCC4)c(=N)c32)cc1OC (configuration not stated) | inconclusive: 8.2 µM [falling, partial curve, poor fit] |
| CCN1C(=O)/C(=C/C=C2\N(CC)c3cc(S(=O)(=O)N(C)C)ccc3N2c2ccccc2)SC1=S | inconclusive: 2.91 µM [falling, full curve] |
| FC(F)(F)c1cccc(N2CCN(C(=S)NCC3CCCO3)CC2)c1 (configuration not stated) | inconclusive: 29.1 µM [falling, single point] |
| C=CCn1c(SCc2nc3sc(C(=O)O)c(C)c3c(=O)[nH]2)nnc1-c1ccccc1 | inactive |
| O=C(Nc1cnc2ccccc2c1)c1ccncc1 | inactive |
| CCC1CCCCN1CCCNC(=O)C1CCN(Cc2nc(-c3ccc(Cl)cc3)oc2C)CC1 (configuration not stated) | inconclusive: 20.6 µM [falling, single point] |
| CCn1c(SCC(=O)N2CCN(c3ccc(F)cc3)CC2)nnc1-c1ccncc1 | inactive |
| O=C(CN1CCC(n2nnc3cc(F)ccc32)CC1)Nc1ccc2c(c1)CCC2 | inconclusive: 23.1 µM [activator, single point] |
| CSc1ccc(S(=O)(=O)N2c3ccccc3CC2C)cc1 (configuration not stated) | inconclusive: 29.1 µM [activator, single point] |
| O=C(CCc1ccccc1)Nc1ccc(S(=O)(=O)N2CCCC2)cc1 | inactive |
| Cc1cc(/N=C/C=C2\N(C)c3ccccc3C2(C)C)n(CCC#N)n1 | active: 14.6 µM |
| O=C(c1ccccc1)N(C(=O)c1ccccc1)c1ncnc2c1C(c1ccccc1)c1c(ccc3ccccc13)O2 (configuration not stated) | inconclusive: 8.2 µM [falling, partial curve, poor fit] |
| CCN(CC)CCC(c1ccc(OC)cc1)c1c(OC)cc(OC)c2c(C)cc(=O)oc12 (configuration not stated) | active: 11.6 µM |
| CCOC(=O)C1=C(CSCc2ccccc2)NC(=O)NC1c1cc(C)ccc1C (configuration not stated) | inconclusive: 20.6 µM [falling, single point] |
| O=C(NCCOCCn1c(=O)oc2ccccc21)Nc1ccc(F)cc1 | inactive |
| C=CC[C@@H](CC(=O)N[C@H](CO)Cc1ccccc1)C(=O)N[C@@H](C)COC(=O)[C@@H](CC=C)Cc1ccc(F)cc1 | inconclusive: 18.4 µM [falling, partial curve, poor fit] |
| Cc1ccc(CNC(=O)CSc2nc(N3CCCCC3)nc(N3CCCCC3)n2)cc1 | inconclusive: 18.4 µM [falling, single point] |

Quoted from above, 12 compounds:

| Compound | Potency |
| --- | --- |
| CN(C(=O)CSc1nc(-c2ccccc2)no1)c1ccc(F)cc1 | inactive |
| COc1cccc(-c2sc3cc(OC)c(OC)cc3c2-c2ccc(OCCN3CCCCC3)cc2)c1 | inconclusive: 29.1 µM [falling, single point] |
| CCN(CC)c1nc(N)c2c(N)nc(OC)cc2c1C#N | inactive |
| Cc1ccc(-c2nnc(Nc3cccc(Cl)c3)c3ccccc23)cc1S(=O)(=O)N1CCN(C)CC1 | inconclusive: 23.1 µM [falling, single point] |
| COc1cccc(Nc2nc(-c3ccccc3)nc3ccccc23)c1 | inconclusive: 6.51 µM [activator, full curve, poor fit] |
| S=C(NCC1COc2ccccc2O1)Nc1ccc(Br)cc1 (configuration not stated) | inconclusive: 32.6 µM [activator, partial curve, poor fit] |
| CN1/C(=C/C(=O)c2nc(S(C)(=O)=O)ncc2Cl)C(C)(C)c2ccccc21 | inconclusive: 18.4 µM [falling, partial curve] |
| COc1ccc(C2c3ccc4ccccc4c3Oc3ncn(CCN4CCOCC4)c(=N)c32)cc1OC (configuration not stated) | inconclusive: 8.2 µM [falling, partial curve, poor fit] |
| CCN1C(=O)/C(=C/C=C2\N(CC)c3cc(S(=O)(=O)N(C)C)ccc3N2c2ccccc2)SC1=S | inconclusive: 2.91 µM [falling, full curve] |
| FC(F)(F)c1cccc(N2CCN(C(=S)NCC3CCCO3)CC2)c1 (configuration not stated) | inconclusive: 29.1 µM [falling, single point] |
| C=CCn1c(SCc2nc3sc(C(=O)O)c(C)c3c(=O)[nH]2)nnc1-c1ccccc1 | inactive |
| O=C(Nc1cnc2ccccc2c1)c1ccncc1 | inactive |
